Data taken from article PMC5442209.
These are yes or no findings as the source states them, for the method shown. Binding calls can cover weak binding; strength is not graded here.

What was measured:
[1] = molecular target: VvSLY1a (Vitis vinifera SLEEPY1 a) (Vitis vinifera); test: two-hybrid; VvSLY1 as Gal4 DNA-BD bait (pGBKT7), VvDELLA as Gal4 AD prey (pGADT7); SC-Leu/Trp/His with 5 mM 3-AT; β-galactosidase liquid assay
[2] = molecular target: VvSLY1b (Vitis vinifera SLEEPY1 b) (Vitis vinifera) (UniProt F6GZW7); test: as above

VvDELLA2 allele of cv. Black finger (from UniProt A0A1X9T4C6)
binding [1]: binds | binding [2]: binds

VvDELLA3 of cv. Black finger (from UniProt A0A1X9T4H2)
binding [1]: binds | binding [2]: binds
